{"source": "PubChem BioAssay AID1259424 – University of Nebraska Medical Center – 2018", "screen": "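Seek colon cancer survival genes behaving like KSR1, using a six-gene signature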 (primary screen)", "system": "human HCT116 colon cancer cells", "reagent": "siRNA pool against human genes, 50 nM", "read-out": "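Log2 levels of six mRNAs (branched-DNA multiplex), adjusted by two reference genes and the non-targeting median, then scored against the average KSR1 knockdown pattern as Pearson r and euclidean distance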", "direction": "mean correlation with KSR1 profile: higher = expression change more like KSR1 knockdown", "note": "Shown is an unselected part of about 14,000 deposited reagents. 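Higher correlation or smaller distance means closer resemblance to KSR1 loss; control wells, including KSR1 knockdowns, recur on many plates.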 Not all columns of the deposit are shown. The record does not give: the time to read-out."}
{"target gene": "ARMCX5 (armadillo repeat containing X-linked 5)", "mean correlation with KSR1 profile": 0.4}
{"target gene": "ANP32E (acidic nuclear phosphoprotein 32 family member E)", "mean correlation with KSR1 profile": 0.442}
{"target gene": "TRIM54 (tripartite motif containing 54)", "mean correlation with KSR1 profile": -0.595}
{"target gene": "PGAP2 (post-GPI attachment to proteins 2)", "mean correlation with KSR1 profile": -0.253}
{"target gene": "IRX5 (iroquois homeobox 5)", "mean correlation with KSR1 profile": -0.0628}
{"target gene": "CPSF6 (cleavage and polyadenylation specific factor 6)", "mean correlation with KSR1 profile": -0.53}
{"target gene": "OR10H1 (olfactory receptor family 10 subfamily H member 1)", "mean correlation with KSR1 profile": 0.398}
{"target gene": "C5AR1 (complement C5a receptor 1)", "mean correlation with KSR1 profile": 0.245}
{"target gene": "AMD1 (adenosylmethionine decarboxylase 1)", "mean correlation with KSR1 profile": 0.695}
{"target gene": "SEMA3C (semaphorin 3C)", "mean correlation with KSR1 profile": -0.563}
{"target gene": "LAS1L (LAS1 like ribosome biogenesis factor)", "mean correlation with KSR1 profile": 0.206}
{"target gene": "B3GALT2 (beta-1,3-galactosyltransferase 2)", "mean correlation with KSR1 profile": -0.0224}
{"target gene": "PDE6B (phosphodiesterase 6B)", "mean correlation with KSR1 profile": -0.604}
{"target gene": "NT5DC2 (5'-nucleotidase domain containing 2)", "mean correlation with KSR1 profile": 0.324}
{"target gene": "IRF8 (interferon regulatory factor 8)", "mean correlation with KSR1 profile": 0.625}
{"target gene": "IKZF1 (IKAROS family zinc finger 1)", "mean correlation with KSR1 profile": -0.0498}
{"target gene": "CEP15 (centrosomal protein 15)", "mean correlation with KSR1 profile": -0.776}
{"target gene": "SNX29 (sorting nexin 29)", "mean correlation with KSR1 profile": 0.607}
{"target gene": "ATG9A (autophagy related 9A)", "mean correlation with KSR1 profile": -0.169}

3 entries from above, ordered by “mean correlation with KSR1 profile”, low to high:
{"target gene": "IKZF1 (IKAROS family zinc finger 1)", "mean correlation with KSR1 profile": -0.0498}
{"target gene": "NT5DC2 (5'-nucleotidase domain containing 2)", "mean correlation with KSR1 profile": 0.324}
{"target gene": "IRF8 (interferon regulatory factor 8)", "mean correlation with KSR1 profile": 0.625}
